Data as given in PubChem BioAssay AID504793 (Drosophila RNAi Screening Center, 2011)

- Test: 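Whole-genome screen for parts of the DNA damage checkpoint at G2/M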 (primary screen)
- Cells: Drosophila S2R+ cells
- Reagent: long dsRNA against Drosophila genes, about 0.25 µg dsRNA per well
- Timing: 4 days of dsRNA, then 4 hours of drug before read-out
- Challenge: doxorubicin 0.5 µM for 4 hours to cause double-strand breaks, in cells also given a low, harmless dose of dsRNA against nbs to sensitise the assay
- Read-out: 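Per-well count of mitotic cells stained for phospho-histone H3 after doxorubicin exposure, used as mitotic index; counts are raw and not normalised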
- Direction: mitotic cells: higher = more cells in mitosis, weaker G2 arrest
- Call rule: 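Genes are called active only when high mitotic counts were reproduced with independent dsRNAs and mitosis was checked for delay without damage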
- Meaning of the calls: active = confirmed in follow-up tests; inactive = not confirmed
The screen tested about 23,000 reagents; this is an unselected part of those with a known target gene and a result. In the full data, 62 (0.27%) are marked active. 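Calls come from follow-up tests whose scores are not deposited, so confirmed genes may have low counts here; counts are not normalised per plate.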 Raw values are not corrected between plates. Reagents against one gene are numbered here. Names joined by + are all predicted targets of the reagent.

Gene | reagent | mitotic cells, replicate 1 | mitotic cells, replicate 2 | call
CG14400 | 1 | 7 | – | inactive
CG8292 | 1 | 4 | – | inactive
CG32260 | 1 | 3 | – | inactive
CG32260 | 2 | 9 | – | inactive
comt (comatose) | 1 | 12 | – | inactive
comt (comatose) | 2 | 6 | – | inactive
CG34282 | 1 | 6 | – | inactive
GILT2 (Gamma-interferon-inducible lysosomal thiol reductase 2) | 1 | 10 | – | inactive
Nsf2 (N-ethylmaleimide-sensitive factor 2) | 1 | 9 | – | inactive
Nsf2 (N-ethylmaleimide-sensitive factor 2) | 2 | 5 | – | inactive
CG33458 | 1 | 7 | – | inactive
Alg12 (Alg12 alpha-1,6-mannosyltransferase) | 1 | 4 | – | inactive
FMRFaR (FMRFamide Receptor) | 1 | 4 | – | inactive
CycT (Cyclin T) | 1 | 2 | – | inactive
CycT (Cyclin T) | 2 | 4 | – | inactive
CycT (Cyclin T) | 3 | 10 | – | inactive
Oseg2 (Outer segment 2) | 1 | 5 | – | inactive
Damm (Death associated molecule related to Mch2 caspase) | 1 | 3 | – | inactive
aPKC (atypical protein kinase C) | 1 | 6 | – | inactive
aPKC (atypical protein kinase C) | 2 | 9 | – | inactive
aPKC (atypical protein kinase C) | 3 | 7 | – | inactive
aPKC (atypical protein kinase C) | 4 | 19 | – | inactive
ND-B17.2 (NADH dehydrogenase (ubiquinone) B17.2 subunit) | 1 | 7 | – | inactive
ND-B17.2 (NADH dehydrogenase (ubiquinone) B17.2 subunit) | 2 | 3 | – | inactive
CG7115 | 1 | 6 | – | inactive
CG7115 | 2 | 9 | – | inactive
aus (argus) | 1 | 5 | – | inactive
aus (argus) | 2 | 13 | – | inactive
aus (argus) | 3 | 8 | – | inactive
aus (argus) | 4 | 3 | – | inactive
CG46298 | 1 | 3 | – | inactive
CG46298 | 2 | 5 | – | inactive
Acox3 (Acyl-CoA oxidase 3) | 1 | 4 | – | inactive
Acox3 (Acyl-CoA oxidase 3) | 2 | 2 | – | inactive
CG9368 | 1 | 7 | – | inactive
CG9368 | 2 | 5 | – | inactive
Ns2 (Nucleostemin 2) | 1 | 1 | – | inactive
Ns2 (Nucleostemin 2) | 2 | 4 | – | inactive
CG6254 | 1 | 6 | – | inactive
CG8299 | 1 | 7 | – | inactive
CG8299 | 2 | 7 | – | inactive
Fum2 (Fumarase 2) | 1 | 14 | – | inactive
Fum2 (Fumarase 2) | 2 | 9 | – | inactive
CG12935 | 1 | 6 | – | inactive
fit (female-specific independent of transformer) | 1 | 10 | – | inactive
Prosbeta3 (Proteasome beta3 subunit) | 1 | 69 | – | inactive
CG10621 | 1 | 1 | – | inactive
CG7484 | 1 | 1 | – | inactive
Npc2c (Niemann-Pick type C-2c) | 1 | 7 | – | inactive
Npc2c (Niemann-Pick type C-2c) | 2 | 6 | – | inactive
CG7755 | 1 | 8 | – | inactive
REPTOR (Repressed by TOR) | 1 | 4 | – | inactive
REPTOR (Repressed by TOR) | 2 | 2 | – | inactive
CG9776 | 1 | 4 | – | inactive
kappaTry | 1 | 9 | – | inactive
CG15653 | 1 | 3 | – | inactive
Nup93-2 (Nucleoporin 93kD-2) | 1 | 3 | – | inactive
Gp150 | 1 | 7 | – | inactive
Gp150 | 2 | 6 | – | inactive
CG10317 | 1 | 8 | – | inactive
CG10962 | 1 | 3 | – | inactive
CG10962 | 2 | 5 | – | inactive
CG1598 | 1 | 5 | – | inactive
CG5280 | 1 | 3 | – | inactive
CG5280 | 2 | 10 | – | inactive
rib (ribbon) | 1 | 6 | – | inactive
Dph1 (Diphthamide biosynthesis 1) | 1 | 5 | – | inactive
SkpE (SKP1-related E) | 1 | 7 | – | inactive
Or85e (retired record) | 1 | 3 | – | inactive
Ugt317A1 (UDP-glycosyltransferase family 317 member A1) | 1 | 8 | – | inactive
ND-42 (NADH dehydrogenase (ubiquinone) 42 kDa subunit) | 1 | 10 | – | inactive
ND-42 (NADH dehydrogenase (ubiquinone) 42 kDa subunit) | 2 | 7 | – | inactive
l(3)04053 (lethal (3) 04053) | 1 | 4 | 6 | inactive
CG17032 | 1 | 7 | – | inactive
CG31642 | 1 | 9 | – | inactive
CG31642 | 2 | 5 | – | inactive
wun (wunen) | 1 | 4 | – | inactive
CG8839 | 1 | 5 | – | inactive
Mlc2 (Myosin light chain 2) | 1 | 6 | – | inactive
Mlc2 (Myosin light chain 2) | 2 | 10 | – | inactive
lncRNA:CR42491 + RpL22 | 1 | 1 | – | inactive
SerT (Serotonin transporter) | 1 | 3 | – | inactive
SerT (Serotonin transporter) | 2 | 10 | – | inactive
ATPsynbetaL (ATP synthase, beta subunit-like) | 1 | 8 | – | inactive
ATPsynbetaL (ATP synthase, beta subunit-like) | 2 | 3 | – | inactive
CG14142 | 1 | 4 | – | inactive
CG14142 | 2 | 9 | – | inactive
CG13138 | 1 | 3 | – | inactive
Aptx (aprataxin) | 1 | 9 | – | inactive
Aptx (aprataxin) | 2 | 13 | – | inactive
CG15387 | 1 | 5 | – | inactive
Doa (Darkener of apricot) | 1 | 13 | – | inactive
Doa (Darkener of apricot) | 2 | 21 | – | inactive
Doa (Darkener of apricot) | 3 | 6 | – | inactive
Doa (Darkener of apricot) | 4 | 7 | – | inactive
Doa (Darkener of apricot) | 5 | 5 | – | inactive
Doa (Darkener of apricot) | 6 | 11 | – | inactive
CG4629 | 1 | 6 | – | inactive
CG4629 | 2 | 4 | – | inactive
snoRNA:Me18S-C1280 (retired record) | 1 | 12 | – | inactive
CG15514 | 1 | 4 | – | inactive
CG15514 | 2 | 7 | – | inactive
CG11313 | 1 | 10 | – | inactive
CG12009 | 1 | 2 | – | inactive
CG12009 | 2 | 5 | – | inactive
su(r) (suppressor of rudimentary) | 1 | 6 | – | inactive
Hsc70-1 (Heat shock protein 70 cognate 1) | 1 | 7 | – | inactive
Hsc70-1 (Heat shock protein 70 cognate 1) | 2 | 10 | – | inactive
S-Lap3 (Sperm-Leucylaminopeptidase 3) | 1 | 5 | – | inactive
S-Lap3 (Sperm-Leucylaminopeptidase 3) | 2 | 3 | – | inactive
